Reference: patent US20220041717A1 (AFFIMED, published 2022)
These are yes or no findings as the source states them, for the method shown. Some entries that bind do so weakly or less than the wild type.

The chains behind the UniProt entries cited, without tags or fusion partners. Where a name states a change or a piece, a line headed by the entry shows the natural chain unless it says otherwise.
UniProt P08637: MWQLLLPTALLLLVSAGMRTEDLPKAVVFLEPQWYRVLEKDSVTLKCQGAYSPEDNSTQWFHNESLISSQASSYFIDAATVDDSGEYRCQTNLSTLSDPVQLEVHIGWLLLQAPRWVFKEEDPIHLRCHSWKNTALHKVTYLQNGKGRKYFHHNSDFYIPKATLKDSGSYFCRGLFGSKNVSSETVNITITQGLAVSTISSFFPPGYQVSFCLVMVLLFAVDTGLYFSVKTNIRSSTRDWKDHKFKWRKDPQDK
UniProt Q02223: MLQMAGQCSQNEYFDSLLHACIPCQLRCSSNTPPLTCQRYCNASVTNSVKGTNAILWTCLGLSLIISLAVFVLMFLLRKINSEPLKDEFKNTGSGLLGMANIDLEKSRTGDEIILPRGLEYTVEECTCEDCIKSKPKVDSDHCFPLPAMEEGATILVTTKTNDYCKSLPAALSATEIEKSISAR

Legend:
[1] = biological target: CD16A (FcgammaRIIIA) on primary human NK-cells (human) (UniProt P08637); assay: flow cytometry on primary human NK-cells (FIG. 4)
[2] = biological target: CD16A (FcgammaRIIIA) on primary human NK-cells (human) (UniProt P08637); assay: flow cytometry on primary human NK-cells (referred to in Example 4)
[3] = biological target: CD16A (FcgammaRIIIA) on primary human NK-cells (human) (UniProt P08637); assay: flow cytometry on primary human NK-cells, tandem diabody against scFv
[4] = biological target: B-cell maturation antigen (BCMA) on myeloma cell lines (human) (UniProt Q02223); assay: flow cytometry titration on MM.1S cells; detection with CD16A-mFc.67/anti-human-FITC
[5] = biological target: B-cell maturation antigen (BCMA) on myeloma cell lines (human) (UniProt Q02223); assay: flow cytometry titration on NCI-H929 cells; detection with CD16A-mFc.67/anti-human-FITC
[6] = biological target: CD16A (FcgammaRIIIA) on primary human NK-cells (human) (UniProt P08637); assay: flow cytometry titration on primary human NK-cells, 37 C; detection with BCMA(1-54)-GCN4-His, anti-His mAb, FITC goat anti-mouse IgG
[7] = biological target: CD16A (FcgammaRIIIA) on primary human NK-cells (human) (UniProt P08637); assay: flow cytometry titration on primary human NK-cells, 37 C, buffer without IgG; detection with BCMA(1-54)-GCN4-His, anti-His mAb, FITC goat anti-mouse IgG
[8] = biological target: CD16A (FcgammaRIIIA) on primary human NK-cells (human) (UniProt P08637); assay: dissociation time course by flow cytometry: primary human NK-cells loaded with 50 ug/mL tandem diabody variant 4 on ice, then 37 C in buffer without IgG
[9] = biological target: CD16A (FcgammaRIIIA) on primary human NK-cells (human) (UniProt P08637); assay: dissociation time course by flow cytometry: primary human NK-cells loaded with 50 ug/mL tandem diabody variant 4 on ice, then 37 C in buffer with 10 mg/mL polyclonal human IgG
[10] = biological target: CD16A (FcgammaRIIIA) on primary human NK-cells (human) (UniProt P08637); assay: flow cytometry titration on primary human NK-cells, 37 C, in presence of 10 mg/mL polyclonal human IgG; detection with BCMA(1-54)-GCN4-His, anti-His mAb, FITC goat anti-mouse IgG

- binding [1]: binds
- binding [2]: binds
- binding [3]: binds
- binding [4]: binds
- binding [5]: binds
- binding [6]: binds
- binding [7]: binds
- binding [8]: binds
- binding [9]: binds
- binding [10]: binds
B1: BCMA/CD16A-directed tandem diabody in variant 4 (bispecific antibody)
chain: QVQLVQSGAEVKTPGEPLKISCKGSGYSFTDSWIGWVRQMPGKGLEWMGIIYAGDSDARYSPSFQGQVTISADTSTSTVYLQWSSLKASDTAMYYCARNFGDHWGQGTLVTVSSGGSGGSGGSGGSSYVLTQPSSVSVAPGQTATISCGGHNIGSKNVHWYQQRPGQSPVLVIYQDNKRPSGIPERFSGSNSGNTATLTISGTQAMDEADYYCQVWDNYSVLFGGGTKLTVLGGSQVQLVQSGAEVKKPGESLKVSCKASGYTFTSYYMHWVRQAPGQGLEWMGAIEPMYGSTSYAQKFQGRVTMTRDTSTSTVYMELSSLRSEDTAVYYCARGSAYYYDFADYWGQGTLVTVSSGGSGGSGGSGGSSYELTQSPSVSVAPGQTARIFCGGDNIGSKNVHWYQQKPGQAPVLVIYRDSNRPSGIPERFSGANSENTATLTISRAQAGDEADYYCQVWDSRTYVFGTGTKLTVL
notes: also called tandem diabody variant 4; Tandem diabody (v4)
